The source of these data is PubChem BioAssay AID330 (DTP/NCI, 2004).

The subject of the assay is P388 leukemia ip, CD2F1 mice, survival T/C. Description: NCI In Vivo Anticancer Drug Screen. Data for tumor model P388 Leukemia (intraperitoneal) in CD2F1 (CDF1) mice. To be noted: T/C endpoint: median survival time, higher T/C = longer survival.

The list shows only some results of the screen, not a fair sample: it is rich in T/C values a quarter to a half above the control, in often repeated tests (any T/C) and in doses without a T/C. Further doses and runs are listed elsewhere. T/C gives the treated animals as a percentage of the vehicle group. Some doses have a count of surviving animals in place of a T/C: the source holds a T/C of zero for them, seemingly a mark for toxic or unscored doses. Some survivor counts are full or nearly so, which does not show that the dose was tolerated: the source hardly ever lists a survival T/C far under the control, and the zero likely stands for such cases as well. Survivors were counted at the toxicity check, usually on the fifth day, unless a day is given; later deaths do not show. Schedule codes are those of the source, taken here to give the interval after Q, in days (D) or hours (H), and the number of doses after X. Marks such as (2×) give the number of equal values in this list. Some doses were run more than once; their values stand side by side, smallest first. Where survival is the endpoint, this PubChem deposit counts one and a half times the control or more as active, and values a quarter to a half above the control carry no call in these data; other NCI protocols may use other cut-offs. Some T/C values carry the count of animals alive at the toxicity check (mostly the fifth day); where none is given, no animal had died by that day.

Turning to `Cc1cc2c(c3oc(C4(C)OC4C4OC4C)cc(=O)c13)C(=O)c1c(O)c(C3CC(C)(N(C)C)C(O)C(C)O3)cc(C3CC(N(C)C)C(O)C(C)O3)c1C2=O` (stereo not given), the T/C reads like this: (dose: 0.01 mg/kg/injection, schedule: Q01DX005 (ip), vehicle: saline) 140 % of control; (dose: 0.01 mg/kg/injection, schedule: Q01DX009 (ip), vehicle: saline) 142 % of control; (dose: 0.02 mg/kg/injection, schedule: Q01DX001 (ip), vehicle: saline) 130 % of control; (dose: 0.02 mg/kg/injection, schedule: Q01DX009 (ip), vehicle: saline) 133 % of control; (dose: 0.02 mg/kg/injection, schedule: Q03HX024 (ip), vehicle: saline) 133 % of control; (dose: 0.02 mg/kg/injection, schedule: Q04DX003 (ip), vehicle: saline) 140 % of control. In addition, the T/C was 140 % of control (dose: 0.02 mg/kg/injection, schedule: Q08DX002 (ip), vehicle: saline); 135 % of control (dose: 0.03 mg/kg/injection, schedule: Q01DX001 (ip), vehicle: saline); 140 % of control (dose: 0.03 mg/kg/injection, schedule: Q01DX005 (ip), vehicle: saline); 133 % of control (dose: 0.03 mg/kg/injection, schedule: Q03HX024 (ip), vehicle: saline); 140 % of control (dose: 0.03 mg/kg/injection, schedule: Q08DX002 (ip), vehicle: saline); 145 % of control (dose: 0.06 mg/kg/injection, schedule: Q01DX001 (ip), vehicle: saline). Besides, the T/C reads like this: (dose: 0.06 mg/kg/injection, schedule: Q03HX016 (ip), vehicle: saline) 127 % of control; (dose: 0.06 mg/kg/injection, schedule: Q03HX024 (ip), vehicle: saline) 142 % of control; (dose: 0.12 mg/kg/injection, schedule: Q03HX008 (ip), vehicle: saline) 127 % of control; (dose: 0.12 mg/kg/injection, schedule: Q03HX024 (ip), vehicle: saline) 138 % of control; (dose: 0.12 mg/kg/injection, schedule: Q04DX003 (ip), vehicle: saline) 140 % of control; (dose: 0.12 mg/kg/injection, schedule: Q08DX002 (ip), vehicle: saline) 140 % of control. Besides, the T/C was 125 % of control (dose: 1.3 micrograms/kg/injection, schedule: Q01DX009 (ip), vehicle: water); 134 % of control (dose: 2.5 micrograms/kg/injection, schedule: Q01DX009 (ip), vehicle: water); 136 and 140 % of control (dose: 3.12 micrograms/kg/injection, schedule: Q01DX009 (ip), vehicle: saline); 140 % of control (dose: 5.0 micrograms/kg/injection, schedule: Q01DX009 (ip), vehicle: water). The survivor count was 4 of 6 (dose: 6.25 micrograms/kg/injection, schedule: Q01DX009 (ip), vehicle: saline); 1 of 6 (dose: 12.5 micrograms/kg/injection, schedule: Q01DX009 (ip), vehicle: saline); 10 of 10 (dose: 20.0 micrograms/kg/injection, schedule: Q01DX009 (ip), vehicle: water); 0 of 6 and 6 of 6 (dose: 25.0 micrograms/kg/injection, schedule: Q01DX009 (ip), vehicle: saline); 10 of 10 (dose: 40.0 micrograms/kg/injection, schedule: Q01DX009 (ip), vehicle: water); 0 of 6 and 3 of 6 (dose: 50.0 micrograms/kg/injection, schedule: Q01DX009 (ip), vehicle: saline). Also, the survivor count was 10 of 10 (dose: 80.0 micrograms/kg/injection, schedule: Q01DX009 (ip), vehicle: water); 0 of 6 and 3 of 6 (dose: 100.0 micrograms/kg/injection, schedule: Q01DX009 (ip), vehicle: saline); 1 of 10 (dose: 160.0 micrograms/kg/injection, schedule: Q01DX009 (ip), vehicle: water).
For the molecule `CC(=O)C1CCC2=C(C1)C(=O)c1cc3c(-c4ccccc4)oc(-c4ccccc4)c3cc1C2=O` (stereo not given), the survivor count reads like this: (dose: 7.5 mg/kg/injection, schedule: Q01DX005 (ip), vehicle: Klucel (hydroxypropylcellulose) (HPC)) 6 of 6; (dose: 15.0 mg/kg/injection, schedule: Q01DX005 (ip), vehicle: Klucel (hydroxypropylcellulose) (HPC)) 6 of 6; (dose: 30.0 mg/kg/injection, schedule: Q01DX005 (ip), vehicle: Klucel (hydroxypropylcellulose) (HPC)) 5 of 6 and 6 of 6; (dose: 60.0 mg/kg/injection, schedule: Q01DX005 (ip), vehicle: Klucel (hydroxypropylcellulose) (HPC)) 6 of 6; (dose: 120.0 mg/kg/injection, schedule: Q01DX005 (ip), vehicle: Klucel (hydroxypropylcellulose) (HPC)) 6 of 6; (dose: 240.0 mg/kg/injection, schedule: Q01DX005 (ip), vehicle: Klucel (hydroxypropylcellulose) (HPC)) 6 of 6.
In the case of `CNC(=O)OCc1c(COC(=O)NC)c(-c2cc(F)ccc2F)n2c1CCC2`, the T/C reads like this: (dose: 6.25 mg/kg/injection, schedule: Q01DX009 (ip), vehicle: distilled water + Tween-80) 147 % of control; (dose: 12.5 mg/kg/injection, schedule: Q01DX009 (ip), vehicle: distilled water + Tween-80) 142 % of control. In addition, the survivor count (dose: 50.0 mg/kg/injection, schedule: Q01DX009 (ip), vehicle: distilled water + Tween-80) was 6 of 6 (2×); the survivor count (dose: 100.0 mg/kg/injection, schedule: Q01DX009 (ip), vehicle: distilled water + Tween-80) is listed as 1 of 6; the survivor count (dose: 200.0 mg/kg/injection, schedule: Q01DX009 (ip), vehicle: distilled water + Tween-80) is 0 of 6.
For `CCC(c1ccc(OC)cc1)C(NC(=S)NCc1ccccc1)c1ccc(OC)cc1` (stereo not given), under “dose: 400.0 mg/kg/injection, schedule: Q04DX002 (ip), vehicle: saline with Tween-80”, the survivor count is given as 6 of 6.
On to `CCN(CC)CCCCNC(=O)c1noc2cc([N+](=O)[O-])ccc12`, for which the T/C runs as follows: (dose: 12.5 mg/kg/injection, schedule: Q01DX005 (ip), vehicle: Klucel (hydroxypropylcellulose) (HPC)) 125 % of control; (dose: 50.0 mg/kg/injection, schedule: Q01DX005 (ip), vehicle: Klucel (hydroxypropylcellulose) (HPC), evaluated on day 20) 100 % of control; (dose: 50.0 mg/kg/injection, schedule: Q01DX005 (ip), vehicle: Klucel (hydroxypropylcellulose) (HPC), evaluated on day 30) 100 [5 of 6 alive], 101, 105 % of control. Moreover, the survivor count (dose: 100.0 mg/kg/injection, schedule: Q01DX005 (ip), vehicle: Klucel (hydroxypropylcellulose) (HPC)) was 0 of 5 and the survivor count (dose: 200.0 mg/kg/injection, schedule: Q01DX005 (ip), vehicle: Klucel (hydroxypropylcellulose) (HPC)) was 0 of 5.
Regarding `COc1ccc(CCN2COc3ccc4ccc(=O)oc4c3C2)cc1OC`, the T/C (dose: 200.0 mg/kg/injection, schedule: Q01DX009 (ip), vehicle: saline with Tween-80) was 130 % of control.
For the molecule `COC(=O)C(=O)C(C(=O)c1ccc(F)cc1)c1nc2n(c1O)C(=N)N=N2` (stereo not given), the survivor count (dose: 240.0 mg/kg/injection, schedule: Q01DX005 (ip), vehicle: saline with Tween-80) is 6 of 6.
With `O=C1Cc2[nH]ccc2C(=O)N1`, the survivor count (dose: 100.0 mg/kg/injection, schedule: Q01DX001 (ip), vehicle: saline with Tween-80) was 1 of 6; the survivor count (dose: 200.0 mg/kg/injection, schedule: Q01DX001 (ip), vehicle: saline with Tween-80) is given as 1 of 6; the survivor count (dose: 400.0 mg/kg/injection, schedule: Q01DX001 (ip), vehicle: saline with Tween-80) is on record as 0 of 6.
With `O=C1C=CC(=O)c2c(O)cccc21`, the survivor count was 5 of 6 (dose: 3.0 mg/kg/injection, schedule: Q01DX009 (ip), vehicle: saline with Tween-80); 0 of 3 and 2 of 6 (dose: 6.25 mg/kg/injection, schedule: Q01DX009 (ip), vehicle: saline with Tween-80); 0 of 3, 0 of 6, 3 of 6 (dose: 12.5 mg/kg/injection, schedule: Q01DX009 (ip), vehicle: saline with Tween-80); 0 of 3 and 1 of 6 (dose: 25.0 mg/kg/injection, schedule: Q01DX009 (ip), vehicle: saline with Tween-80); 0 of 6 (dose: 50.0 mg/kg/injection, schedule: Q01DX009 (ip), vehicle: saline with Tween-80).
With `CCN(CC)CCNC(=O)c1noc2cc([N+](=O)[O-])ccc12`, the survivor count runs as follows: (dose: 100.0 mg/kg/injection, schedule: Q01DX005 (ip), vehicle: saline) 3 of 5; (dose: 200.0 mg/kg/injection, schedule: Q01DX005 (ip), vehicle: saline) 0 of 5.
